Experimental data as given in ChEMBL document CHEMBL5029155, “Design, Synthesis, and Biological Evaluation of Stable Colchicine-Binding Site Tubulin Inhibitors 6-Aryl-2-benzoyl-pyridines as Potential Anticancer Agents” (J Med Chem, 2021).

Experiments:
Format in all cases: functional, cell-based
[1] = system: MDA-MB-231; assay: Cytotoxicity against human MDA-MB-231 cells measured after 72 hrs […]; details: MDA-MB-231, 72 h
[2] = system: A-375; assay: Cytotoxicity against human A-375 cells measured after 72 hrs by western blot; details: A-375, 72 h
[3] = Cytotoxicity against paclitaxel resistant human A-375/TxR cells measured after 72 hrs […]; details: A375/TxR
[4] = Cytotoxicity against paclitaxel resistant human MDA-MB-231/TxR cells measured after 72 hrs […]

Q: With `COc1cc2c(c(OC)c1OC)-c1ccc(OC)c(=O)cc1[C@@H](NC(C)=O)CC2` [COLCHICINE] as the compound, how does the IC50 [1] read?
A: Its IC50 is 24.3 nM.

Q: And the IC50 [2]?
A: Its IC50 is 16.8 nM.

Q: And the IC50 [3]?
A: Its IC50 is 29.6 nM.

Q: What about the IC50 [4] of the same compound?
A: Its IC50 is 24 nM.
